Source: the supplement of paper PMC4635364
Counter-ions that a name gives are not always drawn. The list shows a part of the results. This data set is noisy: repeats of one test often differ as much as different tests do.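 Cells: ReNCell VM human fetal ventral-midbrain neural progenitors, differentiated mitogen-free. Blinded raters compared doublecortin-stained (early neurons) or tyrosine hydroxylase-stained (dopaminergic neurons) images with untreated wells, where 0 means no change. After repeats and both raters were averaged, compounds scoring 2 or above became hits for retesting.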

Each compound was assayed on ReNCell VM (assay: neuronal differentiation score (DCX+ cell fraction vs untreated, manual image score) (score (-3 to 3)); higher = more neuronal differentiation). Conditions: library: LOPAC; 2 uM; 2 weeks.

SMILES | neuronal differentiation score
C[N+]1(C)CCN(c2ccccc2)CC1 [1,1-Dimethyl-4-phenyl-piperazinium iodide] | inactive: -1
CCCN1CCC[C@@H]2Cc3nc(N)ncc3C[C@H]21 [Quinelorane dihydrochloride] | inactive: 1
CC[C@H]1CN2CCc3cc(OC)c(OC)cc3[C@@H]2C[C@@H]1C[C@H]1NCCc2cc(OC)c(OC)cc21 [Emetine dihydrochloride hydrate] | inactive: 0
CN1[C@@H]2C[C@@H](OC(=O)[C@H](CO)c3ccccc3)C[C@H]1[C@@H]1O[C@@H]12 [(-)-Scopolamine hydrobromide] | inactive: 0
COc1ccc2c(c1)[C@@]13CCCC[C@H]1[C@@H](C2)NCC3 [3-Methoxy-morphanin hydrochloride] | inactive: 0
